# Experimental data from PubChem BioAssay AID2685 (National Center for Advancing Translational Sciences (NCATS), 2010).
# This is one part of the list. Shown are side measurements of this screen, not its main read-out; they come without a call. The list favours compounds with an active or inconclusive main result.
# Assay: qHTS Assay for Lipid Storage Modulators in Drosophila S3 Cells;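 note: cells counted by Cell Tracker Red CMTPX staining in the red channel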
# Details: BODIPY lipid droplet fluorescence, 18-24 h, measured here: cell count max response, cells fed with added oleic acid
# From the text: NIH Molecular Libraries Probe Production Centers Network [MLPCN] NIH Chemical Genomics Center [NCGC] MLPCN Grant: 1 R03 MH085686-01 Assay Submitter (PI): Beller, Mathias; Max-Planck-Institut fur Biophysikalische Chemie NCGC Assay Overview: Storing lipids as a reservoir for energy or the anabolism of elementary metabolites is a common feature of probably all cells and is conserved from bacteria to humans. The universal cellular lipid storage organelle is the so-called lipid storage droplet (LD). Although ubiquitous, LDs share a simple structure composed of a hydrophobic core that harbors the storage lipids, which is shielded by a droplet-specific phospholipid monolayer to which proteins are attached. […]
# Triacsin C (Sigma-Aldrich T-4540), an inhibitor of long-chain fatty acyl CoA synthetase that blocks synthesis of triglycerides, was used as a positive control for lipid under-storage. […] Fluorescence was detected by excitation of the fluorophores with a 488-nm laser on an Acumen Explorer (TTP Lab Tech). […] Cells were detected using channel 3 (575-640 nm) with 5-um width and 100-um depth filters. The ratio of the number of objects in PMT channel 2 over the number of objects in PMT channel 3 was also calculated. […]
row,SMILES,cell number change [%]
1,COc1cc(/C=C2/C(=O)NN(c3ccc(Cl)cc3)C2=O)cc(Br)c1O,-22
2,Cc1cc(N2C(=O)C(O)=C(C(=O)c3cc4ccccc4o3)C2c2cccc(Br)c2)no1 (configuration not stated),8.02
